The target in this test is T1, Escherichia coli outer membrane protein G (OmpG), fluorescently labeled (Escherichia coli) (UniProt P76045).
T1 sequence (chain, fluorescent label (dye not named)): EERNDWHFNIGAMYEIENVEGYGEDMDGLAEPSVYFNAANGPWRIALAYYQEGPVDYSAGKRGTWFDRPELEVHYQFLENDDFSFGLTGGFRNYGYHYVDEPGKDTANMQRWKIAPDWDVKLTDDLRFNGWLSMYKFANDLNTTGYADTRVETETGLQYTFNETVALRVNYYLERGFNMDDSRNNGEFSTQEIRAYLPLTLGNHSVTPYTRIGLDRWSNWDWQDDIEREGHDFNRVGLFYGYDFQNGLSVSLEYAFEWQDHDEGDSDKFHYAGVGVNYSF
Description: MST.

No constants are given. Whether binding was seen depends on the method and setting.

B1: recombinant full length His6-BID (natural protein, UniProt P70444 1-195, looked up)
chain: MDSEVSNGSGLGAEHITDLLVFGFLQSSGCTRQELEVLGRELPVQAYWEADLEDELQTDGSQASRSFNQGRIEPDSESQEEIIHNIARHLAQIGDEMDHNIQPTLVRQLAAQFMNGSLSEEDKRNCLAKALDEVKTAFPRDMENDKAMLIMTMLLAKKVASHAPSLLRDVFHTTVNFINQNLFSYVRNLVRNEMD
Regarding B1, the binding result is “no binding (tested: 15 nM to 500 µM)”.

The record behind these values is paper doi:10.1101/2021.09.14.460262 (bioRxiv, 2021).
